Experimental data as given in patent publication US20090176209A1.
These are yes or no findings as the source states them, for the method shown. Some entries that bind do so weakly or less than the wild type. Sequences can lack the tags named with a protein.

By UniProt entry, the sequences of proteins in these tests, tags left out. Residues count along the entry.
UniProt P19438, residues 30-211: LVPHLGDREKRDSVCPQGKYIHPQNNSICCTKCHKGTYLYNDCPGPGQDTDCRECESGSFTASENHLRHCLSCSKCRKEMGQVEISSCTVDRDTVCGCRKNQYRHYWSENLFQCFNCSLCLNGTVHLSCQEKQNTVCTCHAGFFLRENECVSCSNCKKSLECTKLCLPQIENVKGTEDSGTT

Columns and labels:
[1] = target: human TNF receptor, biotinylated (human) (UniProt P19438); assay: model selection from emulsion; capture on coated PCR tubes; PCR and gel
[2] = target: protein A (Sigma), biotinylated (UniProt P38507); assay: protein-DNA complex captured on biotinylated protein in streptavidin-coated PCR tubes; PCR and gel
[3] = target: human TNF receptor, biotinylated (human) (UniProt P19438); assay: as above
[4] = target: protein A (Sigma), biotinylated (UniProt P38507); assay: protein-DNA complex captured on coated PCR tubes; PCR and gel (figure legend)
[5] = target: human TNF receptor, biotinylated (human) (UniProt P19438); assay: as above

Measured: binding

B1: VH(DOM1h-10-27)-scArc fusion protein (pIE2aAVH(DOM1h-10-27)) (protein)
chain: MAEVQLLESGGGLVQPGGSLRLSCAASGFTFEWYWMGWVRQAPGKGLEWVSAISGSGGSTYYADSVKGRFTISRDNSKNTLYLQMNSLRAEDAAVYYCAKVKLGGGPNFGYRGQGTLVTVSSAAGGGSGGGHMKGMSKMPQFNLRWPREVLDLVRKVAEENGRSVNSEIYQRVMESFKKEGRIGAGGGSGGGSGGGSGGGHMKGMSKMPQFNLRWPREVLDLVRKVAEENGRSVNSEIYQRVMESFKKEGRIGAGGGSGGGSYPYDVPDYA
binds: [1] | [2] | [3] | [4] | [5]
